Results deposited as PubChem BioAssay AID504764 (Drosophila RNAi Screening Center, 2011).
In all, the deposit lists about 22,000 reagents; shown is a random part of those that have a named target and a result. In the full data, 403 (1.9%) got an active call. 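Unnormalised raw counts per well; ratio z-scores behind the hit calls and whether each hit raises or lowers signal are not deposited.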 A plus sign joins genes that one reagent is predicted to hit. Not given: the amount of reagent.

- Purpose: 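Genes whose knock-down alters Notch-dependent transcription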 (primary screen)
- Cells: Drosophila Kc167 cells
- Reagents: long dsRNA against Drosophila genes
- Time to read-out: about 5 days (4 days dsRNA, then 24 h after transfection)
- Treatment: transfection of constitutively active membrane-tethered Notch lacking the extracellular domain, read 24 h later
- Read-out: 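Firefly luciferase from an E(spl)m3 reporter with active Notch, plus control-promoter and uninduced reporter wells for normalisation; unnormalised counts, duplicate wells a and b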
- Reading the numbers: induced reporter light, run 1, well a and induced reporter light, run 1, well b: higher = more light from the Notch target reporter with active Notch; control promoter light, run 1, well a and control promoter light, run 1, well b: higher = more light from the viral control promoter (cell number, transfection, viability); uninduced reporter light, run 1, well a: higher = more light from the Notch target reporter without active Notch
- Hit rule: 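Hit if the duplicate-averaged log2 ratio of induced to control-promoter light gives a plate-wise z beyond ±2, or induced to uninduced beyond ±1.8; weak-control or discordant-duplicate wells dropped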
- Meaning of the calls: active = modifier hit (raised or lowered Notch signal); inactive = not a hit

gene,amplicon,"induced reporter light, run 1, well a","induced reporter light, run 1, well b","control promoter light, run 1, well a","control promoter light, run 1, well b","uninduced reporter light, run 1, well a",Call
CG5068,DRSC10476,1.21e5,1.14e5,66890,25755,10932,inactive
Pk34A (Protein kinase at 34A),DRSC03398,1.76e5,1.93e5,1.91e5,2.09e5,15050,inactive
CG13679,DRSC10037,3.06e5,2.04e5,2.52e5,2.11e5,11630,inactive
Ir75a (Ionotropic receptor 75a),DRSC10188,1.82e5,1.61e5,2.10e5,1.93e5,10305,inactive
O-fut1 (O-fucosyltransferase 1),DRSC06138,1.51e5,1.80e5,1.68e5,1.72e5,14785,inactive
CG7556,DRSC20052,2.02e5,2.03e5,1.64e5,1.44e5,14388,inactive
CG8907,DRSC16453,1.70e5,1.89e5,2.08e5,2.48e5,16445,inactive
CG7675,DRSC16280,2.09e5,2.16e5,2.14e5,2.59e5,17830,inactive
CG10116,DRSC09700,1.65e5,1.55e5,1.21e5,1.53e5,13435,inactive
Gnmt (Glycine N-methyltransferase),DRSC15987,29170,43015,58525,39585,5838,inactive
CG7191,DRSC03022,1.46e5,1.47e5,1.17e5,1.36e5,20695,inactive
Art8 (Arginine methyltransferase 8),DRSC02530,1.05e5,1.28e5,56025,79335,15245,inactive
hrm (hermes),DRSC04853,1.57e5,1.48e5,1.83e5,1.79e5,9345,inactive
cactin,DRSC20576,36240,48785,41550,51795,5740,inactive
CG9899,DRSC04597,1.95e5,1.75e5,1.53e5,1.28e5,15235,inactive
CG9184,DRSC08636,1.78e5,1.69e5,2.46e5,2.59e5,11250,inactive
CG9184,DRSC22184,,,,,,inactive
GlcT (Glucosylceramide synthase),DRSC04525,1.66e5,1.75e5,1.25e5,1.29e5,10355,inactive
Eip78C (Ecdysone-induced protein 78C),DRSC11864,10785,11680,10945,11292,3880,inactive
CG5708,DRSC02881,1.06e5,1.28e5,56300,70750,15430,inactive
PAN3 (Poly(A) specific ribonuclease subunit PAN3),DRSC08190,1.05e5,1.34e5,1.39e5,39385,14685,inactive
CG14857,DRSC14981,2.44e5,2.09e5,2.16e5,2.32e5,15510,inactive
rept (reptin),DRSC11388,68375,71075,67765,95045,4070,inactive
lbe (ladybird early),DRSC16985,2.04e5,1.46e5,2.04e5,2.01e5,11232,inactive
Ns4 (Nucleostemin 4),DRSC03199,2.49e5,2.21e5,2.42e5,2.75e5,18080,inactive
CG14764,DRSC05072,73610,87795,98755,1.05e5,5730,inactive
CG14764,DRSC06498,1.25e5,1.51e5,93400,95415,10310,inactive
CG14764,DRSC06844,2.45e5,2.24e5,2.43e5,2.18e5,18665,inactive
Not10 (CCR4-NOT transcription complex subunit 10),DRSC14129,1.50e5,1.26e5,1.00e5,94905,11325,inactive
mahe (maheshvara),DRSC17755,1.76e5,1.65e5,2.31e5,2.21e5,12865,inactive
CG5435,DRSC02860,96460,1.13e5,1.07e5,1.18e5,9840,inactive
SERCA (Sarco/endoplasmic reticulum Ca(2+)-ATPase),DRSC04600,1.67e5,1.72e5,1.34e5,1.37e5,11350,inactive
CG18808,DRSC08539,1.52e5,1.59e5,1.79e5,1.79e5,15715,inactive

4 entries already listed, sorted by “induced reporter light, run 1, well a”, high to low:
gene,amplicon,"induced reporter light, run 1, well a","induced reporter light, run 1, well b","control promoter light, run 1, well a","control promoter light, run 1, well b","uninduced reporter light, run 1, well a",Call
Ns4 (Nucleostemin 4),DRSC03199,2.49e5,2.21e5,2.42e5,2.75e5,18080,inactive
lbe (ladybird early),DRSC16985,2.04e5,1.46e5,2.04e5,2.01e5,11232,inactive
CG14764,DRSC05072,73610,87795,98755,1.05e5,5730,inactive
rept (reptin),DRSC11388,68375,71075,67765,95045,4070,inactive

Further reagents follow:
gene,amplicon,"induced reporter light, run 1, well a","induced reporter light, run 1, well b","control promoter light, run 1, well a","control promoter light, run 1, well b","uninduced reporter light, run 1, well a",Call
mtTFB1 + Ccdc56,DRSC10809,1.21e5,1.06e5,59645,38200,9265,inactive
botv,DRSC05949,89495,1.00e5,1.50e5,2.09e5,9895,inactive
pds5,DRSC06670,1.68e5,1.58e5,2.02e5,2.15e5,11825,inactive
CG11581,DRSC19407,1.30e5,89960,1.21e5,96615,15662,inactive
CG31007,DRSC14029,73350,89600,1.20e5,1.27e5,6325,inactive
rpr (reaper),DRSC11390,1.73e5,1.79e5,2.03e5,1.94e5,7705,inactive
CG7101,DRSC20023,1.14e5,1.06e5,92630,59055,9335,inactive
Mybbp1A (MYB binding protein 1a),DRSC18788,1.29e5,1.53e5,1.64e5,2.07e5,10225,inactive
CG1986,DRSC18197,1.22e5,1.26e5,2.79e5,2.31e5,8632,inactive
L2HGDH (L-2-hydroxyglutarate dehydrogenase),DRSC02082,2.38e5,2.65e5,2.81e5,2.82e5,20585,inactive
CAH8 (Carbonic anhydrase 8),DRSC15784,1.82e5,1.76e5,1.95e5,1.99e5,11475,inactive
dnt (doughnut on 2),DRSC03522,1.79e5,1.83e5,1.81e5,1.94e5,13645,inactive
CG6931,DRSC10750,81040,85265,81915,30885,10230,active
Hml (Hemolectin),DRSC11183,2.48e5,2.11e5,3.28e5,2.25e5,14515,inactive
Rac1,DRSC08688,66805,85915,1.30e5,1.26e5,2385,inactive
sas (stranded at second),DRSC12631,1.04e5,1.12e5,1.16e5,95040,10478,inactive
CG14864,DRSC14987,2.31e5,2.02e5,2.03e5,1.80e5,20028,inactive
